PubChem BioAssay AID1053208 – Peter MacCallum Cancer Centre – 2014

Aim: 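Synthetic lethal interactions between gene loss and doxorubicin in osteosarcoma cells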 (primary screen)
Cells: mouse osteosarcoma cells, early-passage culture from an engineered mouse model of fibroblastic bone tumour
Knock-down reagent: siRNA pool against mouse genes, 40 nM
Duration: about 120 h (48 h before drug, then 72 h with drug)
Challenge: doxorubicin 100 nM for 72 h, roughly 30-40% inhibitory dose
Read-out: 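Viability read as ATP luminescence after 72 h of 100 nM doxorubicin or none, duplicate wells averaged, scaled to non-targeting siRNA, then expressed as robust z-scores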
Reading the numbers: viability z-score with doxorubicin: higher = more viable cells under doxorubicin; viability z-score without drug: higher = more viable cells with knock-down alone
Call rule: 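a pool counts as active when its viability z-score with doxorubicin is -2 or below and its z-score without drug lies between -2 and 2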
The deposit covers about 17,000 reagents; this is a part drawn at random. Of all reagents, 788 (4.7%) got an active call. 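Calls rest on z-score classes alone; an extra cut-off of viability at most 70% of control was not applied to them.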 Not all columns of the deposit are shown.

Alg1 → combined z-score class: no change with or without drug; viability z-score with doxorubicin: -0.56; viability z-score without drug: -0.84; outcome: inactive
Gh → combined z-score class: no change with or without drug; viability z-score with doxorubicin: 0.11; viability z-score without drug: 1.18; outcome: inactive
Dcdc5 → combined z-score class: no change with or without drug; viability z-score with doxorubicin: 0.9; viability z-score without drug: 0.84; outcome: inactive
Zfand3 → combined z-score class: no change with or without drug; viability z-score with doxorubicin: 0.67; viability z-score without drug: 0.84; outcome: inactive
Vmn1r71 → combined z-score class: no change with or without drug; viability z-score with doxorubicin: 0; viability z-score without drug: -0.84; outcome: inactive
Vapa → combined z-score class: no change with or without drug; viability z-score with doxorubicin: -1.46; viability z-score without drug: -1.18; outcome: inactive
Adamts3 → combined z-score class: no change with or without drug; viability z-score with doxorubicin: 0; viability z-score without drug: -0.51; outcome: inactive
Ldah → combined z-score class: high cell count without drug only; viability z-score with doxorubicin: 1.12; viability z-score without drug: 2.19; outcome: inactive
Aadacl2fm1 → combined z-score class: no change with or without drug; viability z-score with doxorubicin: -0.9; viability z-score without drug: 0.84; outcome: inactive
Meaf6 → combined z-score class: no change with or without drug; viability z-score with doxorubicin: -1.57; viability z-score without drug: 0.84; outcome: inactive
Lemd2 → combined z-score class: high cell count without drug only; viability z-score with doxorubicin: 0.67; viability z-score without drug: 2.87; outcome: inactive
Otub1 → combined z-score class: no change with or without drug; viability z-score with doxorubicin: 1.69; viability z-score without drug: 0.17; outcome: inactive
Spata19 → combined z-score class: no change with or without drug; viability z-score with doxorubicin: 1.12; viability z-score without drug: 1.01; outcome: inactive
Pes1 → combined z-score class: no change with or without drug; viability z-score with doxorubicin: -0.45; viability z-score without drug: -1.52; outcome: inactive
Cxcr2 → combined z-score class: no change with or without drug; viability z-score with doxorubicin: 0.9; viability z-score without drug: -0.34; outcome: inactive
A230059G12Rik → combined z-score class: no change with or without drug; viability z-score with doxorubicin: -0.79; viability z-score without drug: -0.51; outcome: inactive
Ddc → combined z-score class: no change with or without drug; viability z-score with doxorubicin: 0.34; viability z-score without drug: -0.67; outcome: inactive
Mbnl3 → combined z-score class: high cell count with doxorubicin only; viability z-score with doxorubicin: 2.02; viability z-score without drug: 1.52; outcome: inactive
Slc6a17 → combined z-score class: no change with or without drug; viability z-score with doxorubicin: 0.67; viability z-score without drug: 0.84; outcome: inactive
Sec23b → combined z-score class: no change with or without drug; viability z-score with doxorubicin: 1.12; viability z-score without drug: 0.84; outcome: inactive

Continued, starting with the last 5 of the part before.
A230059G12Rik → combined z-score class: no change with or without drug; viability z-score with doxorubicin: -0.79; viability z-score without drug: -0.51; outcome: inactive
Ddc → combined z-score class: no change with or without drug; viability z-score with doxorubicin: 0.34; viability z-score without drug: -0.67; outcome: inactive
Mbnl3 → combined z-score class: high cell count with doxorubicin only; viability z-score with doxorubicin: 2.02; viability z-score without drug: 1.52; outcome: inactive
Slc6a17 → combined z-score class: no change with or without drug; viability z-score with doxorubicin: 0.67; viability z-score without drug: 0.84; outcome: inactive
Sec23b → combined z-score class: no change with or without drug; viability z-score with doxorubicin: 1.12; viability z-score without drug: 0.84; outcome: inactive
Xlr4c → combined z-score class: no change with or without drug; viability z-score with doxorubicin: 0.34; viability z-score without drug: -0.51; outcome: inactive
Nme2 → combined z-score class: no change with or without drug; viability z-score with doxorubicin: 0; viability z-score without drug: 0.67; outcome: inactive
Fxyd4 → combined z-score class: no change with or without drug; viability z-score with doxorubicin: 0; viability z-score without drug: 0.17; outcome: inactive
Cmc2 → combined z-score class: high cell count with doxorubicin only; viability z-score with doxorubicin: 2.36; viability z-score without drug: 0.17; outcome: inactive
Stk32a → combined z-score class: no change with or without drug; viability z-score with doxorubicin: -0.34; viability z-score without drug: -0.51; outcome: inactive
Them7 → combined z-score class: no change with or without drug; viability z-score with doxorubicin: 0.67; viability z-score without drug: -1.52; outcome: inactive
Tmcc3 → combined z-score class: no change with or without drug; viability z-score with doxorubicin: 0.56; viability z-score without drug: 0.34; outcome: inactive
Or5ac17 → combined z-score class: no change with or without drug; viability z-score with doxorubicin: 0; viability z-score without drug: -0.51; outcome: inactive
Crabp2 → combined z-score class: high cell count with doxorubicin only; viability z-score with doxorubicin: 2.36; viability z-score without drug: 1.18; outcome: inactive
Dlgap5 → combined z-score class: no change with or without drug; viability z-score with doxorubicin: 1.24; viability z-score without drug: 0.51; outcome: inactive
Pgp → combined z-score class: no change with or without drug; viability z-score with doxorubicin: 0.34; viability z-score without drug: 1.52; outcome: inactive
Cryaa → combined z-score class: no change with or without drug; viability z-score with doxorubicin: -0.9; viability z-score without drug: 0; outcome: inactive
Golt1b → combined z-score class: no change with or without drug; viability z-score with doxorubicin: -1.35; viability z-score without drug: 0.51; outcome: inactive
Triobp → combined z-score class: no change with or without drug; viability z-score with doxorubicin: 1.24; viability z-score without drug: -0.17; outcome: inactive
Mmd2 → combined z-score class: low cell count with and without drug; viability z-score with doxorubicin: -3.26; viability z-score without drug: -3.2; outcome: inactive
Or5p5 → combined z-score class: no change with or without drug; viability z-score with doxorubicin: -1.35; viability z-score without drug: -0.51; outcome: inactive
